Laboratory results as given in patent publication US8148419B2, “N-(1-alkyl-2-phenylethyl)-carboxamide derivatives and use thereof as fungicides” (Bayer Cropscience AG, priority 2005, dated 2012).
Some results were stated once for a whole list of compounds, not compound by compound.

Tests used:
[1] = test system: Alternaria brassicae; test: In vivo test on Alternaria brassicae (leaf spot of crucifers); conditions: dose 500 ppm; radish plants sprayed 24 hours before contamination; grading 6 to 7 days after contamination vs control plants
[2] = test system: Mycosphaerella graminicola; test: In vivo test on Mycosphaerella graminicola (wheat leaf spot); conditions: wheat plants sprayed 24 hours before contamination, grading 21 to 28 days after contamination vs control plants
[3] = test system: Pyrenophora teres; test: In vivo test on Pyrenophora teres (barley net blotch); conditions: dose 500 ppm; barley plants sprayed 24 hours before contamination; grading 12 days after contamination vs control plants
[4] = test system: Botrytis cinerea; test: In vivo test on Botrytis cinerea (cucumber grey mould); conditions: dose 500 ppm; gherkin plants sprayed 24 hours before contamination; grading 5/7 days after contamination vs control plants
[5] = test system: Sphaerotheca fuliginea; test: In vivo test on Sphaerotheca fuliginea (cucurbit powdery mildew); conditions: dose 500 ppm; gherkin plants sprayed 24 hours before contamination; grading 21 days after contamination vs control plants

| Compound | protection (good, at least 70%, or total) [1] | protection (good, at least 70%, or total), % of efficacy ([2]; dose 500 ppm) | protection (good, at least 70%, or total) [3] | protection (good, at least 50%, or total) [4] | protection (good, at least 70%, or total), % of efficacy [5] | protection (good, at least 70%, or total), % of efficacy ([2]; dose 500 g/ha) |
| --- | --- | --- | --- | --- | --- | --- |
| 2-bromo-N-[2-(4-chlorophenyl)-1-methylethyl]-N-cyclopropylthiophene-3-carboxamide [Compound H-1] | at least 70% |  |  |  |  |  |
| Cc1csc(C(=O)NC(C)Cc2ccc(Cl)cc2)c1 (stereo not shown) [Compound B-4] | at least 70% | at least 70% | at least 70% |  |  |  |
| CC(Cc1ccc(Cl)cc1)NC(=O)c1sccc1Br (stereo not shown) [Compound B-1, 3-bromo-N-[2-(4-chlorophenyl)-1-methylethyl]thiophene-2-carboxamide] | at least 70% | at least 70% |  | at least 50% |  |  |
| CC(Cc1ccc(Cl)cc1)NC(=O)c1cn(C)cc1C(F)(F)F (stereo not shown) [Compound C-2] | at least 70% | at least 70% |  | at least 50% |  |  |
| CC(Cc1ccc(Cl)cc1)NC(=O)c1cn(C)nc1C(F)F (stereo not shown) [Compound F-2] | at least 70% |  | at least 70% | at least 50% | at least 70% |  |
| CC(Cc1ccc(Cl)cc1)N(C(=O)c1cn(C)nc1C(F)(F)F)C1CC1 (stereo not shown) [Compound F-1] |  |  | at least 70% |  |  |  |
| CCOc1nn(C)cc1C(=O)N(C(C)Cc1ccc(Cl)cc1)C1CC1 (stereo not shown) [Compound F-4] | at least 70% |  | at least 70% |  | at least 70% | at least 70% |
| CC(Cc1ccc(Cl)cc1)NC(=O)c1cc(I)cs1 (stereo not shown) [Compound B-3] |  | at least 70% | at least 70% |  | at least 70% |  |
